# Laboratory results taken from patent EP0740252A2, “Apparatus, method, and standard curve for measuring clearance” (KUREHA KAGAKU KOGYO KABUSHIKI KAISHA, priority 1995, dated 1996).
# “And” between values parts separate entries of the source, which are not always exact repeats. Equal entries are not always repeated. At least one read-out could not be matched to a standard name with certainty.
# Assay: Creatinine clearance by 24-hour urine accumulation method, rat
# Type: in vivo, female SD rats
# Settings: seven partially nephrectomized rats (Example 14), one value per rat
compound,measurement,value
"CN1CC(=O)NC1=N [Creatinine, creatinine]",Conventional Method: (24-Hour Urine Accumulation Method) Creatinine Clearance (1),0.44 mL/min and 0.71 mL/min and 0.70 mL/min and 0.32 mL/min and 0.65 mL/min and 0.88 mL/min
